Where a chain is given by its changes, count along the chain named. Where two headings read alike, the source gives them in different places. No constants are given. Whether binding was seen depends on the method and setting. In cells and extracts the contact can be indirect. Some entries that bind do so weakly or less than the wild type. Sequences can lack the tags named with a protein.
What was measured:
Assay in all cases: pull-down
GFP-MKLP1 [1] = biological target: T1, GFP-MKLP1 (UniProt Q02241)
T1 sequence: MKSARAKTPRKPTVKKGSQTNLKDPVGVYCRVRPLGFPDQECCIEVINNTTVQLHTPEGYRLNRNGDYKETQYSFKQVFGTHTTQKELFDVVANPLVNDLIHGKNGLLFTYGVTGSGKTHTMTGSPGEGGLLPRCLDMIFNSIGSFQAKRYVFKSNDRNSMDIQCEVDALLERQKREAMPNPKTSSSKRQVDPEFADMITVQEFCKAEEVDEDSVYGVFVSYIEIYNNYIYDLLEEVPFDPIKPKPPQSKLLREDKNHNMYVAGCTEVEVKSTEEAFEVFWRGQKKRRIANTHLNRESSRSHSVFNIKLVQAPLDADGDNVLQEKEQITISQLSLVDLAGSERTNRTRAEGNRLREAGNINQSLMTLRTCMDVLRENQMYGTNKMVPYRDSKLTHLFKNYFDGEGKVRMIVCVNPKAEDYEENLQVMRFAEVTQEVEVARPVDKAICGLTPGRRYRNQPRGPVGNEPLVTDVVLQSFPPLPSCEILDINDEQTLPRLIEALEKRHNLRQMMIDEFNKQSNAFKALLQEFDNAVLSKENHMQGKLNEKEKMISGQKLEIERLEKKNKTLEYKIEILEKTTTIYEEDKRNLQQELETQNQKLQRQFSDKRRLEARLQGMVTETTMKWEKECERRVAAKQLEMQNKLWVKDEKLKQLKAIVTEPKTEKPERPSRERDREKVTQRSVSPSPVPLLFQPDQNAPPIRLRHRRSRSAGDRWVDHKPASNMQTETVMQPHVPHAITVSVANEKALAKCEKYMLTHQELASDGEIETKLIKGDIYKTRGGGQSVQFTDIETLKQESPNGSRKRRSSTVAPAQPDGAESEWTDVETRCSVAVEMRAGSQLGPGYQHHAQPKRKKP

Protein sequences, listed by entry. Tags and fused reporters are not part of them.
UniProt O14578: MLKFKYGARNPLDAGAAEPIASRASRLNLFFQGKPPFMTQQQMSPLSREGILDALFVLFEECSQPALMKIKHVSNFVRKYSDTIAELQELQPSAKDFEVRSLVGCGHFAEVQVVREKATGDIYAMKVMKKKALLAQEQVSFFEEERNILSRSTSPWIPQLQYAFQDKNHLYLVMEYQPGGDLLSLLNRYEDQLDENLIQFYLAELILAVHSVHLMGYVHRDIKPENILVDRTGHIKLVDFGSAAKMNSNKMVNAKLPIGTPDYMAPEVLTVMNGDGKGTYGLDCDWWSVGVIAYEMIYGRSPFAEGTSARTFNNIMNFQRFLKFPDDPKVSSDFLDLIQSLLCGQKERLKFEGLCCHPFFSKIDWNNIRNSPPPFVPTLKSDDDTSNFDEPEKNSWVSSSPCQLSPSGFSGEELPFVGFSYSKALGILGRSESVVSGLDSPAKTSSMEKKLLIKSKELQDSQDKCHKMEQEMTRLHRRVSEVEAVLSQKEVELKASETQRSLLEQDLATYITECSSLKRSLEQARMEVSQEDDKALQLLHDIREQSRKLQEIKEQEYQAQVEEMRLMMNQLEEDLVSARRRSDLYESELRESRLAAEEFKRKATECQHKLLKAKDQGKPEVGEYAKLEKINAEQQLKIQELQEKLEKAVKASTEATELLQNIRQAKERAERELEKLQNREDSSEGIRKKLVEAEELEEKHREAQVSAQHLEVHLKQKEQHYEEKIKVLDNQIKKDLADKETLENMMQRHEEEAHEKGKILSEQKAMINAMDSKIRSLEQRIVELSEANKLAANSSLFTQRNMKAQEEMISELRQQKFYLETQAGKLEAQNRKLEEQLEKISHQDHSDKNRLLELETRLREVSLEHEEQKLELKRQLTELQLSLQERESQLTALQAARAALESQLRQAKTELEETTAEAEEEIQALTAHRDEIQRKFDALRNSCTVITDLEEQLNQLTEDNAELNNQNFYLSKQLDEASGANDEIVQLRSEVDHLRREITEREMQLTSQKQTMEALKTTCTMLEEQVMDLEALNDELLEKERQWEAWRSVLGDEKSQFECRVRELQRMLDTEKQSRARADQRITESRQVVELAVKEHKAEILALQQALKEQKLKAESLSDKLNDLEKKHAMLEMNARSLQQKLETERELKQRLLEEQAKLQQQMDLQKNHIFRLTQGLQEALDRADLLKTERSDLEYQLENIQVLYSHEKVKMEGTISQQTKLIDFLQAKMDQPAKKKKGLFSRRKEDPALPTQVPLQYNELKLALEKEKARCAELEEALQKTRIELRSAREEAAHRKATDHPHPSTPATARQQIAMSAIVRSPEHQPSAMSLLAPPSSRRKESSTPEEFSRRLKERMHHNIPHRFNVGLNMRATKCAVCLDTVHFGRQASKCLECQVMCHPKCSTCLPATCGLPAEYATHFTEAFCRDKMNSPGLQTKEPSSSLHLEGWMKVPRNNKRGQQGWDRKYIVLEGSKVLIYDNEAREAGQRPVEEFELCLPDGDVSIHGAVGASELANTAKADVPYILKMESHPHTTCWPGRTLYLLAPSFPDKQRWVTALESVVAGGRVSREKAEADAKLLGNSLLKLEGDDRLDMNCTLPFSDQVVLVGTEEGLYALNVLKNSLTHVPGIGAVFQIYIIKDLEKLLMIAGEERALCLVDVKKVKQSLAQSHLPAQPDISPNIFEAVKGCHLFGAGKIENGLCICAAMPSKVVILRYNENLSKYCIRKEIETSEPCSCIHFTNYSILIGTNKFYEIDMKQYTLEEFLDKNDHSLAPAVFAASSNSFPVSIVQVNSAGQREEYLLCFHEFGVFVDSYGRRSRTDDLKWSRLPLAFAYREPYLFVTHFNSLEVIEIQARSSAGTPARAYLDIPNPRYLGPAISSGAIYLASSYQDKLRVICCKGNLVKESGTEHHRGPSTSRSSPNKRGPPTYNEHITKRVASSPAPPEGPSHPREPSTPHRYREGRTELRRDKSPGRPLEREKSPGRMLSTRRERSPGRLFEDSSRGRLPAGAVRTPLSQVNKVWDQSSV
UniProt P62140: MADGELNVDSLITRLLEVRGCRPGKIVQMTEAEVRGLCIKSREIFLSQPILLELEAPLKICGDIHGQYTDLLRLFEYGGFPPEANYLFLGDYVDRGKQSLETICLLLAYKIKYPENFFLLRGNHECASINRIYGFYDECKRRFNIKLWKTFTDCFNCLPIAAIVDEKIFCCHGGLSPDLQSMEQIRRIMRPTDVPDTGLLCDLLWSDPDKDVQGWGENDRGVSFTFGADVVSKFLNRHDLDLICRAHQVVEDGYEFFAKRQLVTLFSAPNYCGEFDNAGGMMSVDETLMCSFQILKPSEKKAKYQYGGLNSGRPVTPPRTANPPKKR

[2] = biological target: T2, MBP-MKLP1 (full length, wild type) (UniProt Q02241)
T2 sequence: T1 sequence

MBP-MKLP1^AQA = biological target: T3, MBP-MKLP1^AQA (UniProt Q02241)
T3 sequence: T1 sequence with V786A, F788A

GFP-MKLP1 [3] = biological target: T1, GFP-MKLP1; remark: listed apart in the source

binding (GFP-MKLP1 [1]) | binding [2] | binding (MBP-MKLP1^AQA) | binding (GFP-MKLP1 [3]) | Substance
binds |  |  |  | Citron kinase (endogenous) (from UniProt O14578 1-2027) (enzyme)
 | binds | binds |  | GST-PP1β (from UniProt P62140 1-327) (enzyme)
binds |  |  | binds weakly | PP1β (endogenous) (from UniProt P62140 1-327) (enzyme)

Source: article doi:10.1101/569459 (bioRxiv, 2019)
